# Measured values from PubChem BioAssay AID651640 (Broad Institute, 2012).
# “And” between values parts separate entries of the source, which are not always exact repeats. Equal entries are not always repeated. Screen size: about 350,000 compounds; about 6,000 (1.7%) were called active. The inconclusive results got no clear call from the source; some entries with a clear call stand among them for comparison. Cut-off read from the data, not from the text of the source: active = CPE inhibition above about 20% (passing the limit was not always enough); inconclusive = no clear call, values can overlap the other calls; tested in BHK-21 cells.
# Assay: protection of cells from dengue 2 killing – plate reader, single concentration, primary screen (AID 651640);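 note: 0% = median of neutral control wells and 100% = median of positive control wells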
# Conditions: DENV2-infected cells, cytopathic effect rescue, at 9.99 µM, hits give high values
row,Structure (SMILES),CPE inhibition
1,CSc1cnc2c(=O)n(C)c(=O)[nH]c2n1,inconclusive: 21.4%
2,CN1C(=O)c2cc(NC(=O)Nc3ccccc3Cl)ccc2OC[C@H]2O[C@H](CC(=O)NCCCN3CCOCC3)CC[C@H]21,inactive: -4.69%
3,COC(=O)c1c(C)[nH]c(C(=O)COC(=O)CCc2ccc(OC)c(OC)c2)c1C,inconclusive: 30.1%
4,COC(=O)c1c(NC(=O)COC(=O)CCS(=O)(=O)c2ccc(C)cc2)sc(C)c1C,inconclusive: 38.6%
5,O=C([C@H]1N[C@H]2c3ccc(C4=CCCC4)c(=O)n3C[C@H]2[C@@H]1CO)N1CCc2ccccc2C1,inconclusive: 50.3%
6,COc1ccccc1-c1nnc(NC(=O)c2cccc(N3C(=O)CCC3=O)c2)o1,inconclusive: 51.3%
7,O=C(C1CCCC1)N1CC[C@H]2[C@H](CO)Nc3ccc(Br)cc3[C@H]21,inconclusive: 21.3%
8,CN(C[C@H]1N[C@@H](CO)[C@@H]1c1ccc(C2=CCCC2)cc1)C(=O)c1cccc(F)c1,inactive: -8.74%
9,Cc1nonc1NC(=O)CSc1cn[nH]n1,inactive: 0.602%
10,CCOC(=O)Nc1cc(=O)c([N+](=O)[O-])c(N)[nH]1,inconclusive: 46.2%
11,CO[C@H]1CN(C)C(=O)c2ccc(NC(=O)C3CCCC3)cc2OC[C@@H](C)NC[C@H]1C,inconclusive: 27.1%
12,CCCC#Cc1ccc([C@@H]2[C@@H](CO)N(C(=O)C3CC3)[C@H]2C#N)cc1,active: 62.6%
13,O=C(O)c1ccccc1C(c1ccccc1)c1ccccc1O (stereo unspecified),inconclusive: 25.1%
14,O=C(O)C1C2CCCCC2=C2CCCCC2C1C(=O)c1ccccc1 (stereo unspecified),inconclusive: 20.7%
15,O=C(Nc1ccc2c(c1)OCO2)N[C@H]1CC[C@H](CCNC(=O)C2CCCCC2)O[C@H]1CO,inconclusive: 25.5%
16,OC[C@@H]1[C@@H](c2ccc(-c3ccccc3F)cc2)[C@H]2CN(Cc3cncnc3)CCCCN12,active: 68.3%
17,COc1cccc(C(=O)COc2ccc3c(C)c(Cc4ccccc4)c(=O)oc3c2)c1,inconclusive: 34.7%
18,C[C@H]1CN([C@@H](C)CO)C(=O)c2cc(NC(=O)NC3CCCCC3)ccc2O[C@H]1CN(C)CC1CCCCC1,inactive: -5.7%
19,N#C/C(=C\c1c[nH]c2ccccc12)C(=O)NCC1CCCO1 (stereo unspecified),inactive: -5.71%
20,O=C(c1ccccc1)N1CC[C@H]2[C@H](CO)Nc3ccc(C#Cc4ccccc4F)cc3[C@H]21,active: 31.6%
21,COc1c(OC2OC(C(=O)O)C(O)C(O)C2O)cc(O)c2c(=O)cc(-c3ccccc3)oc12 (stereo unspecified),active: 25.4%
22,O=C(Nc1c(C(=O)N2CCOCC2)cnn1-c1ccccc1)c1ccc([N+](=O)[O-])cc1,inactive: 3.85%
23,C[C@@H]1CN([C@H](C)CO)C(=O)c2cc(NC(=O)CCN3CCOCC3)ccc2O[C@@H]1CN(C)C(=O)Nc1ccc2c(c1)OCO2,active: 49.8%

row,Structure (SMILES),CPE inhibition
1,CSCC[C@H](NC(=O)N1CCn2c1nc1ccccc12)C(=O)N[C@H](Cc1ccccc1)C(=O)O,inconclusive: 37.9%
2,C[C@H]1CN([C@@H](C)CO)C(=O)c2cc(C#CCN(C)C)cnc2O[C@@H]1CN(C)C(=O)c1cccc(F)c1,inconclusive: 22.1%
3,CS(=O)(=O)Nc1ccc2c(c1)[C@@H]1C[C@@H](CC(=O)NCCN3CCCCC3)O[C@H](CO)[C@@H]1O2,inactive: 0.117%
4,CC1CCCCC1NC(=O)CCNC(=O)N1CC(=O)Nc2ccccc21 (stereo unspecified),inactive: -0.471%
5,CC(C)[C@H](NC(=O)CC1CCCC1)C(=O)N1CCC[C@H]1C(=O)NCCc1ccccc1Cl,inactive: 5.41%
6,Cc1noc(C)c1NC(=O)N1C[C@H](O)COC[C@@H]2O[C@@H](CC(=O)NCC3CCCCC3)CC[C@H]21,inconclusive: 74.2%
7,COC1=CC(=O)OC(c2cccc(OC)c2)C1 (stereo unspecified),inactive: -8.59%
8,CC(C)NC(=O)Nc1ccc2c(c1)CC(=O)N([C@H](C)CO)C[C@H](C)[C@@H](CN(C)Cc1ccc(C(F)(F)F)cc1)O2,inactive: 0.431%
9,O=C(/C=C/c1cccc([N+](=O)[O-])c1)c1ccc([N+](=O)[O-])o1,inconclusive: 28.6%
10,Cc1cc(NC(=O)CCN2CCC(C)CC2)ccc1Br,inconclusive: 24.5%
11,Cc1noc(C)c1NC(=O)Nc1ccc2c(c1)CC(=O)N([C@H](C)CO)C[C@@H](C)[C@H](CN(C)S(=O)(=O)c1ccccc1)O2,inactive: -9.22%
12,O=C(COC(=O)Cc1cccc(C(F)(F)F)c1)NC(=O)NC1CCCC1,inconclusive: 22.5%
13,Cc1noc(C)c1S(=O)(=O)N(C)C[C@H]1Oc2c(NS(=O)(=O)c3ccccc3)cccc2C(=O)N([C@@H](C)CO)C[C@H]1C,inconclusive: 27%
14,C[C@@H]1CCCCO[C@H](CN(C)Cc2ccccc2)[C@@H](C)CN([C@H](C)CO)C(=O)c2cc(NC(=O)CCCCCC(=O)Nc3ccccc3N)ccc2O1,inactive: -10.8%
15,CCN(CC)CCCNc1nc(C)cc(COC)c1C#N,active: 44.5%
16,FC(F)(F)Oc1ccccc1C(c1nnnn1C1CCCCC1)N1CCN(C/C=C/c2ccccc2)CC1 (stereo unspecified),inconclusive: 24.7%
17,Cc1ccc(CC(=O)Nc2cccc(C(=O)Nc3c(C)n(C)n(-c4ccccc4)c3=O)c2)cc1C,active: 30.5%
18,C[C@H](CO)N1C[C@H](C)[C@@H](CN(C)Cc2ccc(-c3ccccc3)cc2)Oc2c(NS(=O)(=O)c3ccc(Cl)cc3)cccc2C1=O,inconclusive: 41.5%
19,O=C(N[C@@H]1CC[C@H](CCn2cc(C3(O)CCCC3)nn2)O[C@H]1CO)C1CC1,inconclusive: 20.9%
20,COc1ccc(-c2ccc(C3[C@@H]4CN(C(=O)Nc5cccc(F)c5)C[C@H]3N4)cc2)cc1 (stereo partly specified),inactive: 6.26% and inactive: -0.231%
21,COc1cc(C(=O)OCCCc2cc3ccccc3c(=O)o2)cc(OC)c1OC,inconclusive: 60.5%
22,C[C@@H](NC(=O)C[C@H]1CC[C@@H]2[C@H](COC[C@H](O)CN2C(=O)Nc2ccccc2)O1)c1ccccc1,active: 21.1%
23,C[C@H](NC(=O)c1ccco1)C(=O)NNC(=O)COc1cccc(C(F)(F)F)c1,inconclusive: 20.4%

# Quoted from the listing, 2 compounds:
row,Structure (SMILES),CPE inhibition
9,O=C(/C=C/c1cccc([N+](=O)[O-])c1)c1ccc([N+](=O)[O-])o1,inconclusive: 28.6%
10,Cc1cc(NC(=O)CCN2CCC(C)CC2)ccc1Br,inconclusive: 24.5%
